No constants are given. Whether binding was seen depends on the method and setting. Binding seen in cells or lysates may run through a third protein. Some entries that bind do so weakly or less than the wild type. For part of these data: Where a sequence is shown, tags or fusion partners need not be part of it.
How the values were obtained:
TMEM147-ALFA (human) = TMEM147-ALFA (human) (UniProt Q9BVK8); assay: cross-linking
NCLN-ALFA (human) = NCLN-ALFA (human) (UniProt Q969V3); assay: cross-linking
GFP-EMC2 (human) = target: T1, GFP-EMC2 (human) (UniProt Q15006); assay: co-IP
T1 sequence: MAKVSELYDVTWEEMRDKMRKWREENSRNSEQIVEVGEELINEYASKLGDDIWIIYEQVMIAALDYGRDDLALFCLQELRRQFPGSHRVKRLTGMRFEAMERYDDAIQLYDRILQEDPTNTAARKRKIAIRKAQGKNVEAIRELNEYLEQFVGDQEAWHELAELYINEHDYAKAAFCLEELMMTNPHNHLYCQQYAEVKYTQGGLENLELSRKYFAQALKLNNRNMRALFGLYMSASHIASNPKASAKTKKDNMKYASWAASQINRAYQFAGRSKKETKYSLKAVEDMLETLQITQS

Amino acid sequences for entries named in this document (tags omitted). A change or cut given only in a name is not applied to a line headed by its entry. Residues count along the entry.
UniProt Q9BVK8: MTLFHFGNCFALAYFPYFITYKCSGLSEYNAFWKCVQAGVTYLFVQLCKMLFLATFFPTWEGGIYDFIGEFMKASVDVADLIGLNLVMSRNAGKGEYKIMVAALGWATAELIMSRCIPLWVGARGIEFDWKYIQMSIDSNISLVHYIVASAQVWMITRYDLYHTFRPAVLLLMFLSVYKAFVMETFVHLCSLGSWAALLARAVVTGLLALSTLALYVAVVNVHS
UniProt Q969V3, residues 43-563: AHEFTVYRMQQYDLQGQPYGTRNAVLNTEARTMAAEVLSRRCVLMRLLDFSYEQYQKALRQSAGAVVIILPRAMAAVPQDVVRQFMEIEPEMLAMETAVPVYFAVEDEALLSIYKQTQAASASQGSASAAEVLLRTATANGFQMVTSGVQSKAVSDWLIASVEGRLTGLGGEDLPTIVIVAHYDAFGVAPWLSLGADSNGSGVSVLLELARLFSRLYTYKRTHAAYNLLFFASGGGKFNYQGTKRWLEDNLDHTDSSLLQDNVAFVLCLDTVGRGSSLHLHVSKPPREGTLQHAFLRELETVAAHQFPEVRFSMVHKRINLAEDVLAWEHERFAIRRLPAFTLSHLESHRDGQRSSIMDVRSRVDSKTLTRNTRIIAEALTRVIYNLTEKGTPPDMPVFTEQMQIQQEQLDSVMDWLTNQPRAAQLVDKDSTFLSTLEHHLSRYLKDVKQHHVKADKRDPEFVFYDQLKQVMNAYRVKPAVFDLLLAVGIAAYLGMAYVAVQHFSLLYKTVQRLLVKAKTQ
UniProt Q5UCC4, residues 26-262: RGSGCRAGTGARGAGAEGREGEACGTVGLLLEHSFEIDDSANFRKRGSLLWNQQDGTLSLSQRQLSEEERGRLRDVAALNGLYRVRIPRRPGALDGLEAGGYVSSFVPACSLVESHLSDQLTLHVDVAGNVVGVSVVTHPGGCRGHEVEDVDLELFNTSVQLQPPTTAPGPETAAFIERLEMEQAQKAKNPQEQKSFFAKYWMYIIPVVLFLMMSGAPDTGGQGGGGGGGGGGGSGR
UniProt Q9UM00: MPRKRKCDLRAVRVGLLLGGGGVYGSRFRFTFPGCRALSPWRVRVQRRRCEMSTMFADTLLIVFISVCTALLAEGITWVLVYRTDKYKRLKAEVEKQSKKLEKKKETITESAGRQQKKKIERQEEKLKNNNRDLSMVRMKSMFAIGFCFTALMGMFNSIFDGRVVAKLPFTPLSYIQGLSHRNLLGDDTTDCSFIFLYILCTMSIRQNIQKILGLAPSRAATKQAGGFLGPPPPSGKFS
UniProt Q9BUV8: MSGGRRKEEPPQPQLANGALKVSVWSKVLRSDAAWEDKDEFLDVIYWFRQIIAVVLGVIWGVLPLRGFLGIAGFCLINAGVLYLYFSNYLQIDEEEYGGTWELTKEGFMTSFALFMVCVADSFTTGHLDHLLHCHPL

Substance	binding (TMEM147-ALFA (human))	binding (NCLN-ALFA (human))	binding (GFP-EMC2 (human))
EMC10 (from UniProt Q5UCC4 26-262)	binds	binds	–
GET and EMC like (GEL) complex (from UniProt Q9UM00;Q9BUV8)	–	–	binds

Reference: article doi:10.1101/2023.11.28.569054
